# From PubChem BioAssay AID2685 (National Center for Advancing Translational Sciences (NCATS), 2010)
# The list shows a part of the results. The main result of the screen is listed elsewhere. These columns were measured beside it and carry no call. Most of these compounds were active or inconclusive in the main read-out, so they are no random draw. Potencies come from curve fits of mixed quality, noted in brackets.
# Assay: qHTS Assay for Lipid Storage Modulators in Drosophila S3 Cells;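 on cell number change: cells counted by Cell Tracker Red CMTPX staining in the red channel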
# Conditions: BODIPY lipid droplet fluorescence, 18-24 h; for cell number change: measured here: cell count max response, cells fed with added oleic acid
# How it was run: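 Drosophila S3 cells loaded with oleic acid (400 uM, as added) and compounds at several concentrations; lipid droplets imaged by 488-nm laser-scanning cytometry, 500–530 nm intensity and object ratio to cell channel. Percent activity normalized to 20 uM Triacsin C.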
# [1] = measured here: cell number channel AC50, cells fed with added oleic acid
# [2] = measured here: lipid fluorescence (Fed channel) AC50, cells fed with added oleic acid
compound,measurement,setting,value
Cc1cc(C(=O)NNC(=O)/C=C/c2ccco2)c(C)o1,cell number change,,3.61%
COc1ccc(NCc2nnc(SCC#N)n2-c2ccccc2OC)cc1,cell number change,,18.4%
same,AC50,[1],"146 nM [rising, full curve, poor fit]"
CCCc1cc(C(=O)Nc2cc(Cl)ccc2O)no1,cell number change,,14.6%
same,AC50,[2],"1030 nM [falling, full curve, poor fit]"
CCOC(=O)c1sc(/N=C/c2c(C)[nH]n(-c3ccccc3)c2=O)c(C#N)c1C,AC50,[2],"6510 nM [rising, single point]"
Clc1ccc2nc(CSc3nncn3-c3ccccc3)cn2c1,cell number change,,-0.557%
same,AC50,[2],"9200 nM [rising, partial curve]"
CC(=O)N1CCOc2ccc(S(=O)(=O)N(C)c3ccc(C)cc3)cc21,cell number change,,-27.2%
COc1cc(Cl)c(C)cc1NC(=O)CNC(C)c1ccccc1OC (centres undefined),cell number change,,25.3%
same,AC50,[1],"164 nM [rising, full curve, poor fit]"
same,AC50,[2],"7310 nM [rising, partial curve, poor fit]"
CCN1C(=O)c2cccc3c(S(=O)(=O)N4CCCC4C(=O)O)ccc1c23 (centres undefined),cell number change,,1.28%
same,AC50,[2],"116 nM [rising, single point]"
CCOC(=O)c1c(CN2CCOCC2)n(-c2ccccc2)c2cc(Br)c(O)c(CN(C)C)c12,cell number change,,-9.66%
COc1cc(OC)cc(C(=O)N2CCN(Cc3cccc(F)c3)CC2)c1,cell number change,,39.1%
same,AC50,[1],"4110 nM [rising, single point]"
Cc1onc(-c2c(F)cccc2Cl)c1C(N)=S,cell number change,,-14.9%
same,AC50,[1],"164 nM [falling, full curve, poor fit]"
same,AC50,[2],"116 nM [falling, full curve, poor fit]"
COc1ccc(CCn2c(NCCCN3CCOCC3)nc3c2c(=O)[nH]c(=O)n3C)cc1,cell number change,,-0.952%
same,AC50,[1],"731 nM [falling, single point]"
same,AC50,[2],"651 nM [falling, single point]"
CCN(CC)C(=O)C1CCN(Cc2ccc(OCc3ccccc3)c(OC)c2)CC1,AC50,[2],"6510 nM [rising, single point]"
COC(=O)C(C)n1cnc2c(nnn2-c2cccc(Cl)c2)c1=O (centres undefined),cell number change,,51.2%
same,AC50,[1],"1840 nM [rising, full curve]"
same,AC50,[2],"2590 nM [rising, full curve]"
CC(=O)NC1=NN(C(C)=O)C2(S1)C(=O)N(C(C)C)c1ccc(C)cc12 (centres undefined),cell number change,,79.8%
same,AC50,[1],"25900 nM [rising, single point]"
same,AC50,[2],"29100 nM [rising, single point]"
CCOc1c2ccc(C(=O)NCC34CC5CC(CC(C5)C3)C4)cc2nn1CC,cell number change,,-10.8%
same,AC50,[2],"7310 nM [falling, partial curve]"
CC(=O)c1ccc(NC(=O)Cn2c3ccccc3c3nc(=O)cc(C)n32)cc1,cell number change,,2.45%
same,AC50,[1],"820 nM [falling, single point]"
O=C1/C(=C/C=C/c2ccco2)SC(=S)N1c1ccc(O)cc1,cell number change,,-25.8%
same,AC50,[1],"2060 nM [falling, full curve, poor fit]"
same,AC50,[2],"4110 nM [falling, single point]"
Cc1ccc(C(=O)NCC(=O)N2CCCC(C(F)(F)F)C2)s1 (centres undefined),cell number change,,11.5%
same,AC50,[1],"65.1 nM [rising, full curve, poor fit]"
same,AC50,[2],"29100 nM [rising, single point]"
COc1ccc(Cc2c(O)nc(SCC(=O)c3ccc(OC)cc3)[nH]c2=O)cc1,cell number change,,7.05%
Cc1c(C(=O)NC2CC2)oc2ccccc12,cell number change,,-2.08%
same,AC50,[2],"20600 nM [rising, partial curve, poor fit]"
Cc1nnc(NC(=O)C(C)Sc2nnc(-c3ccco3)n2C(C)C)s1 (centres undefined),cell number change,,26.1%
same,AC50,[1],"4.61 nM [rising, full curve, poor fit]"
same,AC50,[2],"1640 nM [falling, full curve]"
Cc1ccc(C(=O)NCC(=O)NCc2cc(=O)n(C)c(=O)n2C)cc1C,cell number change,,-9.44%
same,AC50,[2],"580 nM [falling, single point]"
Cc1ccc2c(c1)Oc1ccc([N+](=O)[O-])cc1C(=O)N2,cell number change,,1.93%
same,AC50,[2],"231 nM [rising, full curve, poor fit]"
O=C(CCC(=O)OCC(=O)c1ccc(Br)cc1)NC1CCCCC1,cell number change,,5.71%
COc1cc(C(=O)NNC(=O)c2ccco2)cc(OC)c1OC,cell number change,,21.7%
same,AC50,[2],"29100 nM [rising, partial curve]"
Cc1ccc(-n2nc(C)c(/C=N/NC(=O)c3cccs3)c2Cl)cc1,cell number change,,-57.2%
same,AC50,[1],"25900 nM [falling, partial curve]"
same,AC50,[2],"3260 nM [falling, partial curve]"
O=C(Cc1cccc2ccccc12)NN1C(=O)/C(=C\c2cccnc2)SC1=S,cell number change,,-29.9%
same,AC50,[2],"517 nM [falling, full curve]"
c1ccc(-c2n[nH]c3c2CCC3)cc1,cell number change,,-17.9%
same,AC50,[2],"1460 nM [falling, full curve]"
NC(=O)c1nsc(C(=O)N(c2ccc(F)cc2)C(C(=O)NCC2CCCO2)c2ccc3ncccc3c2)c1N (centres undefined),cell number change,,16.5%
same,AC50,[2],"1460 nM [rising, full curve]"
CN1C(=O)C(O)(CC(=O)/C=C/C=C/c2ccccc2)c2ccccc21 (centres undefined),cell number change,,6.31%
same,AC50,[2],"920 nM [falling, full curve, poor fit]"
COC(=O)c1nccnc1C(=O)Nc1ccccc1N1CCOCC1,cell number change,,3.41%
CCOC(=O)c1c(S(=O)(=O)N2CCCC(C(=O)Nc3cccc(C)n3)C2)c(C)n(C)c1C (centres undefined),cell number change,,-22.4%
same,AC50,[1],"2060 nM [falling, partial curve, poor fit]"
CCOC(CNc1c([N+](=O)[O-])c(=O)n(C)c(=O)n1C)OCC,cell number change,,30.8%
same,AC50,[1],"23100 nM [rising, single point]"
same,AC50,[2],"184 nM [falling, full curve]"
CC(=O)c1ccc(OCCCC(=O)N2CCN(S(=O)(=O)c3cc(C)ccc3C)CC2)cc1,cell number change,,17%
same,AC50,[1],"651 nM [rising, partial curve]"
same,AC50,[2],"1460 nM [rising, full curve]"
Cc1ccc(OCC(=O)N/N=C/c2ccncc2)cc1C,cell number change,,-30.9%
same,AC50,[1],"146 nM [falling, full curve]"
same,AC50,[2],"146 nM [falling, full curve]"
Cc1c(C(=O)N(C)C)sc(NC(=O)c2cc([N+](=O)[O-])cc([N+](=O)[O-])c2)c1C#N,cell number change,,7.64%
same,AC50,[2],"29100 nM [rising, single point]"
Cc1[nH]c2ccccc2c1-c1nc2ccccc2[nH]c1=O,cell number change,,18.5%
O=C1/C(=C/c2ccccc2[N+](=O)[O-])COc2ccccc21,cell number change,,-60.2%
CC(Oc1ccc(Cl)cc1)C(=O)N1CCCc2ccccc21 (centres undefined),cell number change,,27.4%
same,AC50,[2],"35500 nM [rising, single point]"
O=C(NCC(=O)N(Cc1ccco1)C(C(=O)NC1CCCCC1)c1cccnc1)c1cccs1 (centres undefined),cell number change,,66.5%
same,AC50,[1],"5170 nM [rising, partial curve]"
same,AC50,[2],"580 nM [rising, single point]"
COC(=O)c1ccccc1NC(=O)Cn1c(-c2nonc2N)nc2ccccc21,AC50,[1],"1300 nM [rising, partial curve]"
COc1cc(C(=O)N/N=C(\C)c2ccccn2)cc(OC)c1OC,cell number change,,1.08%
same,AC50,[2],"116 nM [falling, full curve, poor fit]"
CCCCNc1nc(Nc2ccc(C)c(Cl)c2)c2cnn(C)c2n1,cell number change,,-65%
same,AC50,[1],"23100 nM [falling, partial curve]"
same,AC50,[2],"25900 nM [falling, partial curve]"
Nc1nc2c(nc(N3CCCCC3)n2[C@@H]2O[C@H](CO)[C@@H](O)[C@H]2O)c(=O)[nH]1,cell number change,,7.32%
O=C(CNC(=O)c1ccc(S(=O)(=O)N2CCCC2)cc1)N/N=C/c1ccccc1,cell number change,,14.7%
O=C(NCc1ccccn1)c1cc2ccccc2oc1=O,cell number change,,114%
same,AC50,[1],"20600 nM [rising, single point]"
same,AC50,[2],"461 nM [rising, full curve, poor fit]"
COc1ccc2nc(NC(=O)CNS(=O)(=O)c3cccs3)sc2c1,cell number change,,44.9%
same,AC50,[1],"517 nM [rising, full curve]"
O=C(CSc1nc(=O)n(CCCN2CCOCC2)c2c1CCC2)Nc1ccc([N+](=O)[O-])cc1,cell number change,,-25%
same,AC50,[1],"4610 nM [falling, full curve, poor fit]"
CC(NC(=O)c1ccccc1[N+](=O)[O-])C1CC2CCC1C2 (centres undefined),cell number change,,-15.3%
same,AC50,[2],"6510 nM [rising, single point]"
N#Cc1c(NC(=O)CCCN2C(=O)c3ccccc3C2=O)oc(-c2ccccc2)c1-c1ccccc1,cell number change,,-14.8%
same,AC50,[2],"18400 nM [falling, single point]"
OC(c1ccc(Cl)cc1Cl)C(Cc1cccnc1)n1cncn1 (centres undefined),cell number change,,-0.339%
COc1ccc(C(=O)NCCS(=O)(=O)N2CCc3ccccc3C2)cc1OC,cell number change,,-5.83%
same,AC50,[2],"4110 nM [rising, partial curve, poor fit]"
C/C(=N\NC(=O)C1CC1)c1ccc(OC(F)F)cc1,cell number change,,-17.1%
same,AC50,[2],"206 nM [rising, single point]"
Cc1cc(C)nc(SSc2nc(C)cc(C)n2)n1,cell number change,,-4.73%
same,AC50,[2],"29100 nM [falling, single point]"
O=C(Nc1ccc(S(=O)(=O)NCc2ccco2)cc1)c1cccc(F)c1,cell number change,,52.8%
same,AC50,[1],"23100 nM [rising, single point]"
COc1ccccc1NC(=O)Cn1cc(C(=O)C2CC2)c2ccccc21,cell number change,,20%
O=C(COC(=O)c1n[nH]c(=O)c2ccccc12)NCc1ccccc1,cell number change,,24.7%
same,AC50,[2],"2590 nM [falling, partial curve]"
O=C1CC(c2ccccc2)n2ncnc2N1 (centres undefined),cell number change,,-189%
same,AC50,[1],"29100 nM [falling, single point]"
same,AC50,[2],"29100 nM [falling, single point]"

# 7 entries drawn at random from the list so far, as already listed:
compound,measurement,setting,value
COc1ccc(Cc2c(O)nc(SCC(=O)c3ccc(OC)cc3)[nH]c2=O)cc1,cell number change,,7.05%
COc1ccccc1NC(=O)Cn1cc(C(=O)C2CC2)c2ccccc21,cell number change,,20%
O=C(CSc1nc(=O)n(CCCN2CCOCC2)c2c1CCC2)Nc1ccc([N+](=O)[O-])cc1,AC50,[1],"4610 nM [falling, full curve, poor fit]"
O=C(NCC(=O)N(Cc1ccco1)C(C(=O)NC1CCCCC1)c1cccnc1)c1cccs1 (centres undefined),AC50,[1],"5170 nM [rising, partial curve]"
CN1C(=O)C(O)(CC(=O)/C=C/C=C/c2ccccc2)c2ccccc21 (centres undefined),cell number change,,6.31%
Cc1onc(-c2c(F)cccc2Cl)c1C(N)=S,AC50,[2],"116 nM [falling, full curve, poor fit]"
COC(=O)C(C)n1cnc2c(nnn2-c2cccc(Cl)c2)c1=O (centres undefined),cell number change,,51.2%
